Test results: the supplement of paper PMC10849652
This is one part of the list.

Protein sequences, listed by entry. Tags and fused reporters are not part of them. Lines headed by an entry give the natural chain unless they say otherwise; changes in a name come on top.
UniProt Q9H832: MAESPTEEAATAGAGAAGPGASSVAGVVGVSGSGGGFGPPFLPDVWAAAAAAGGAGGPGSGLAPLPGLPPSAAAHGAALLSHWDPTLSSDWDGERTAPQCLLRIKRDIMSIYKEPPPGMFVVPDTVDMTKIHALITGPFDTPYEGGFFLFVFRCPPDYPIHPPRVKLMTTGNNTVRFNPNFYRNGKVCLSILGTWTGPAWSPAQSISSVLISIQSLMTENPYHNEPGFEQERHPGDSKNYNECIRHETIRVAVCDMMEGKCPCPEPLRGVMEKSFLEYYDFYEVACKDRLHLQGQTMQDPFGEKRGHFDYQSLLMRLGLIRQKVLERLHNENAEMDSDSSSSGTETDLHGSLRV
UniProt P68371, whole entry, looked up: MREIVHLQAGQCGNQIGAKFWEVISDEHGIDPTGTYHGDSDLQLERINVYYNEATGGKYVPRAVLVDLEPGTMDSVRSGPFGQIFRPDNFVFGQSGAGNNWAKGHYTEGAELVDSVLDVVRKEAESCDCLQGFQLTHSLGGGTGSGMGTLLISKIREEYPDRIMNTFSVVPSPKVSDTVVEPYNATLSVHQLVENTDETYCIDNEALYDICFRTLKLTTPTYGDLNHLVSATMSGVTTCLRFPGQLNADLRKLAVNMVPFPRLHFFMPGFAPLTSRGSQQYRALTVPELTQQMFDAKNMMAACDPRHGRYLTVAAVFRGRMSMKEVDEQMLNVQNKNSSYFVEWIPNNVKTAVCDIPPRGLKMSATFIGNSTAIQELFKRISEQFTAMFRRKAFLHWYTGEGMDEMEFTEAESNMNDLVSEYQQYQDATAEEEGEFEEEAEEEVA
UniProt Q9GZZ9, whole entry, looked up: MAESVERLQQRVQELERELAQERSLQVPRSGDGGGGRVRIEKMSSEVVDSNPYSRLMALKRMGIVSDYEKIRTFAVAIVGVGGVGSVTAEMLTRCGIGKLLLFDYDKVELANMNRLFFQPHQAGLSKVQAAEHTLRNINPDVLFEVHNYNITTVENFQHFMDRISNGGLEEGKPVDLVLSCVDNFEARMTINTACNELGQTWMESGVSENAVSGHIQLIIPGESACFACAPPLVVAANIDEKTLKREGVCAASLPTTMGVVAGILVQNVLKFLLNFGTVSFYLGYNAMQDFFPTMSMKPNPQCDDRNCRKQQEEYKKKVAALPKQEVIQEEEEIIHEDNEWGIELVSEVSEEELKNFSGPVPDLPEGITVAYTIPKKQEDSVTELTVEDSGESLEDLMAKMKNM
UniProt Q9HA47: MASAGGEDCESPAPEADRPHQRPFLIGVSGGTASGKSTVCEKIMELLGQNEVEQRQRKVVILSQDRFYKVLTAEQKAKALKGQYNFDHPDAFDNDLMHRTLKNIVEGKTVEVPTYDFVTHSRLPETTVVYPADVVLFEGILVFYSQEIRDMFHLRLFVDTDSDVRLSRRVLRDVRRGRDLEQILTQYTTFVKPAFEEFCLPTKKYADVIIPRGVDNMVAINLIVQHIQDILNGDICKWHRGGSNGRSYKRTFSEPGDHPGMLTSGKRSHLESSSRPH
UniProt Q13509, whole entry, looked up: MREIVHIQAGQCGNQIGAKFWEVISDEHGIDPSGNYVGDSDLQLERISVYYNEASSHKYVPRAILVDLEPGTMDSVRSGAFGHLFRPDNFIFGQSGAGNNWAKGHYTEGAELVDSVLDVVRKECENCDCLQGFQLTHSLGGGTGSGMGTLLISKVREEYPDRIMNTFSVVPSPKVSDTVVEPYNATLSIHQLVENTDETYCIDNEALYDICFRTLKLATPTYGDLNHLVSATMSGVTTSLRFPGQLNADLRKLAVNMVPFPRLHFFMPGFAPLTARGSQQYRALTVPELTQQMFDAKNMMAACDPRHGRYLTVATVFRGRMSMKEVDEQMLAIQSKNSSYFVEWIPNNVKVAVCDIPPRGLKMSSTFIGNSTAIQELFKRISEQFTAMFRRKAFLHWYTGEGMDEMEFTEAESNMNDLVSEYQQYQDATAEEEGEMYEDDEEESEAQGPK
UniProt P23258, whole entry, looked up: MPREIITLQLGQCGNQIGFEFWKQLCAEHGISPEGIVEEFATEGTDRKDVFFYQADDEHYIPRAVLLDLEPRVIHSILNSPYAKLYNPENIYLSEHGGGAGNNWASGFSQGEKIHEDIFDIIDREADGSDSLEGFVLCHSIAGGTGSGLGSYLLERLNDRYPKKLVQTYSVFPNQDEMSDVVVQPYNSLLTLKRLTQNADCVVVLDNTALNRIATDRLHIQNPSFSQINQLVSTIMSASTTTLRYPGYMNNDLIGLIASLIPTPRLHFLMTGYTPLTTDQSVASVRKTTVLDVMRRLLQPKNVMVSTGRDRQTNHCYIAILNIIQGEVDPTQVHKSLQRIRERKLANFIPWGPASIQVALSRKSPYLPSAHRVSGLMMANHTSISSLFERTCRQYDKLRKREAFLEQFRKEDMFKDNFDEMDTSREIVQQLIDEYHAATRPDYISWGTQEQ
UniProt Q7Z7E8: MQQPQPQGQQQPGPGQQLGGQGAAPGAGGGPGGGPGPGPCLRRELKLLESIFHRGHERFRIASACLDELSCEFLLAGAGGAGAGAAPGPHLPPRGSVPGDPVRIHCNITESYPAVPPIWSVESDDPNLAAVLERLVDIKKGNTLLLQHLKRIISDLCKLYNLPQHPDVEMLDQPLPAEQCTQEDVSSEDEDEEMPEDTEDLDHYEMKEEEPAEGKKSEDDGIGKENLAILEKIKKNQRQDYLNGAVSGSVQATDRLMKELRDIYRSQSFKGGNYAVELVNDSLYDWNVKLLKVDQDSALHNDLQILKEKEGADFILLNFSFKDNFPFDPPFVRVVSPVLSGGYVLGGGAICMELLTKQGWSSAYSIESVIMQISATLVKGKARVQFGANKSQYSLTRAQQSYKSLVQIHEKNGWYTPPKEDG
UniProt P49459, whole entry, looked up: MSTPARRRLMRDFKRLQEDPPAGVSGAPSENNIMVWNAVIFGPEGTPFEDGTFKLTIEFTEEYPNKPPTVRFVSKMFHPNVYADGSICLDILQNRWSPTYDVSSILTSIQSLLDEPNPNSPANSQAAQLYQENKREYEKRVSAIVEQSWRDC
UniProt O14562: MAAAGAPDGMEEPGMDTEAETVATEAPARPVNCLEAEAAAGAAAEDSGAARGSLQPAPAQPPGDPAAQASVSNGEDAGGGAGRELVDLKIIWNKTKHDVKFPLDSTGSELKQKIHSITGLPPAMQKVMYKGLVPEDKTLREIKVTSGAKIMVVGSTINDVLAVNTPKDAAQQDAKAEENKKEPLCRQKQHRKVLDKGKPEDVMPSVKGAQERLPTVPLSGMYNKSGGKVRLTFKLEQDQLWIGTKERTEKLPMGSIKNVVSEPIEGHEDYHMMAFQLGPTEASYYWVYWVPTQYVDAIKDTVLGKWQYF
UniProt P62253: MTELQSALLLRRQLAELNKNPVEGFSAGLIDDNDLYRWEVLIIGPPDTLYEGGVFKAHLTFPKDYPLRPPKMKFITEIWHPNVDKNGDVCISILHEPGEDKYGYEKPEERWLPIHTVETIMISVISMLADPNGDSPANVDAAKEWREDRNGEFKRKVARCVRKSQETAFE
UniProt Q3B726, whole entry, looked up: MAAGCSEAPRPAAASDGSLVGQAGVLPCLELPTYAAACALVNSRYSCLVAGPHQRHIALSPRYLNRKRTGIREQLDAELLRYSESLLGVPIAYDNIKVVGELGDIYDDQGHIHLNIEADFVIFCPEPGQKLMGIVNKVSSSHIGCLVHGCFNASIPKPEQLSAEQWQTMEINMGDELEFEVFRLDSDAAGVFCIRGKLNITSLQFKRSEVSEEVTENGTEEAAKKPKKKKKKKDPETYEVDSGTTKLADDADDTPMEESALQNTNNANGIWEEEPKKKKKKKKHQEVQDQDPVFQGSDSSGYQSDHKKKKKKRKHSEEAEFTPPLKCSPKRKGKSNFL
UniProt Q7Z3V4: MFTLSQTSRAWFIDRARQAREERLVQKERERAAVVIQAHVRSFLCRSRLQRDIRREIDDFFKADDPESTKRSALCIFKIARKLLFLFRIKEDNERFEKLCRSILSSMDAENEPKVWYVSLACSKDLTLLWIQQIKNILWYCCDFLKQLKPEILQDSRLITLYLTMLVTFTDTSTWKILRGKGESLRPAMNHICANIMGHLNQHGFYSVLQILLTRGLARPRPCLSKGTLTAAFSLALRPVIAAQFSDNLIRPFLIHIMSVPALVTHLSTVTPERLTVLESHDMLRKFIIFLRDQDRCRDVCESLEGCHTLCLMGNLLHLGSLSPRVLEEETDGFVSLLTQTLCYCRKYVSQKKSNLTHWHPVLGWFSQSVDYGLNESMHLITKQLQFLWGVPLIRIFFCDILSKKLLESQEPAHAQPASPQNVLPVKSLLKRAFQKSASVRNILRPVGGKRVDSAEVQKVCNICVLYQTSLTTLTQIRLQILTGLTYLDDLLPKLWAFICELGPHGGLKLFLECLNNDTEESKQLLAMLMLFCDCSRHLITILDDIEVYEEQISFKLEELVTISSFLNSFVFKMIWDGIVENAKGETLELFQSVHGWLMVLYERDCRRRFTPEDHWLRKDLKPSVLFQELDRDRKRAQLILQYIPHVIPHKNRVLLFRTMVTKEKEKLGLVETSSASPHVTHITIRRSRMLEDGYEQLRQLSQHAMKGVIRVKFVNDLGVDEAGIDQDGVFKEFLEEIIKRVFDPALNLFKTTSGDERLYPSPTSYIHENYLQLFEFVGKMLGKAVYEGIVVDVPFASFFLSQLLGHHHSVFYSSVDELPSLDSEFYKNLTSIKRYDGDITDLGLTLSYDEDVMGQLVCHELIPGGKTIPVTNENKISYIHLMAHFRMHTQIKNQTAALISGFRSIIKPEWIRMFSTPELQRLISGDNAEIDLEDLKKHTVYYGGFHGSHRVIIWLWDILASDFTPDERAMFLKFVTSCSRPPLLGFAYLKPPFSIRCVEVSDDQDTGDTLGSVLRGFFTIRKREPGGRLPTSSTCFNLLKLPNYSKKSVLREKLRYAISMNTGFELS
UniProt Q5JXB2: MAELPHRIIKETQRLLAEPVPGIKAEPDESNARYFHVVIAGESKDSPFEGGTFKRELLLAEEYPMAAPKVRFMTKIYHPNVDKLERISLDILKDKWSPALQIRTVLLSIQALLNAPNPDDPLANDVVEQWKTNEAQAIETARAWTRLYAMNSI
UniProt Q04323: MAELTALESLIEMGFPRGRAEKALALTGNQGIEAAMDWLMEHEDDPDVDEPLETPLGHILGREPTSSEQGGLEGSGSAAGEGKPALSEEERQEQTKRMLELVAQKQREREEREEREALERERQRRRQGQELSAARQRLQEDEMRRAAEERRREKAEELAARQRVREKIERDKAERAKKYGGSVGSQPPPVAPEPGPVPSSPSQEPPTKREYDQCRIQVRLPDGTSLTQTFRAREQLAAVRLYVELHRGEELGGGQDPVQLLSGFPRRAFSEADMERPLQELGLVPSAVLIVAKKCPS
UniProt Q9H3M7: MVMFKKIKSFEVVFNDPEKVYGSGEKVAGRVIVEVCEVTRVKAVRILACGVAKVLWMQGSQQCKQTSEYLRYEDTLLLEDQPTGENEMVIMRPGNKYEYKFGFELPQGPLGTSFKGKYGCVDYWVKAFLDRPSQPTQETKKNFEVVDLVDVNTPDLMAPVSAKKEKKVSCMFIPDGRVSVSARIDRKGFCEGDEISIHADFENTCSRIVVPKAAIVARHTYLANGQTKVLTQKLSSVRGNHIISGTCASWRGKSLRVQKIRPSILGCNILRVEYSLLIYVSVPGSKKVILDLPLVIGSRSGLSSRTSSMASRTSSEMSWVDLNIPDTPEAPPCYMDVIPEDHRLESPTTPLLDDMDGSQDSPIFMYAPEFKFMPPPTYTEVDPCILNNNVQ
UniProt Q9UGJ1, whole entry, looked up: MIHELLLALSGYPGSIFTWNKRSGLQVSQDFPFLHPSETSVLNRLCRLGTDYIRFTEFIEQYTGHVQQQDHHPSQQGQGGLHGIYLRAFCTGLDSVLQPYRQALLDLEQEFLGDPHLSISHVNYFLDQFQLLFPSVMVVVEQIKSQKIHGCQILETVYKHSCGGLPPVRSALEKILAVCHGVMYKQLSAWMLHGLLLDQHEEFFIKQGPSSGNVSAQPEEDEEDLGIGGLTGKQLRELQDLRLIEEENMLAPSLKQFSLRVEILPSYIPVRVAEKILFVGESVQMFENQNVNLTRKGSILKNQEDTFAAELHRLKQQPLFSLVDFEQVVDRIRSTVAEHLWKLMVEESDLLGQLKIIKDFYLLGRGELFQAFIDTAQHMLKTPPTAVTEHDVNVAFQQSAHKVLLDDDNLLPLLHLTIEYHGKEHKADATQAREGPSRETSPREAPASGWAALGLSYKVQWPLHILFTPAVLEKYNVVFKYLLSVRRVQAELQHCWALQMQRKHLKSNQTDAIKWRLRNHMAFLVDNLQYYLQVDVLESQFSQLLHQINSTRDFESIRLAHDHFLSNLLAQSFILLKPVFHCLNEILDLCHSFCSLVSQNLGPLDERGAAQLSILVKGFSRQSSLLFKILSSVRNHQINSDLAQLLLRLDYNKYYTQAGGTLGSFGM
UniProt P83876: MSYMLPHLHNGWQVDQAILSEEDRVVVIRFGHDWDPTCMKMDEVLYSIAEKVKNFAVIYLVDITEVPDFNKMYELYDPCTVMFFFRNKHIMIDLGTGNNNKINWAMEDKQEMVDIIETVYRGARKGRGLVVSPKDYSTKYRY

What was measured:
Assay in all cases: log2 fold change, soluble protein after heating vs DMSO (PISA); higher = thermal stabilisation; K562 lysate, 10 uM; active = over 0.2 and 3.5 SD of the protein, either way, in both replicates (recomputed)
[1] = compound: C#Cc1cccc(Nc2ncnc3cc(OCCOC)c(OCCOC)cc23)c1 [erlotinib]
Procedure, shortened: (§1)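 Soluble protein was defined as the supernatant remaining after 21,000xg for 90 min, following pooling of heated aliquots and adjustment to 0.5% NP-40 at 4°C. Before that, crude K562 extract at 1 mg/mL protein in PBS pH 7.4 with 1 mM MgCl2 was treated with 10 μM compound for 30 min and heated for 3 min across 48°C-58°C. Quantification used TMTpro 16plex LC-MS/MS with channel sums equalised, and values are log-two fold changes in thermal stability relative to solvent controls from duplicates.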

[2] = compound: C/C(=N\NC(=O)C1=CC(=CC=C1)S(=O)(=O)N2CCOCC2)/C3=C(C=CC(=C3)Cl)O
Procedure, shortened: as §1

[3] = compound: C1=CC(=CC=C1C2=NC3=C(N2)C=C(C=C3)C(=O)N)OC4=CC=C(C=C4)Cl
Procedure, shortened: as §1

[4] = compound: C1=CC2=C(C=CC(=C2)/C=C\3/C(=O)NC(=NCC4=CC=CS4)S3)N=C1
Procedure, shortened: as §1

[5] = compound: C1=CC2=NC=CN=C2C=C1/C=C/3\C(=O)NC(=O)S3
Procedure, shortened: as §1

[6] = compound: C1=CC=C(C=C1)C2=NC(=C(N2)C3=CC=NC=C3)C4=CC(=C(C=C4)Cl)O
Procedure, shortened: as §1

[7] = compound: C1=CC=C2C(=C1)C3=NNC4=CC=CC(=C43)C2=O
Procedure, shortened: as §1

[8] = compound: C1CCN(C1)C(=O)NC2=CC=CC(=C2)NC3=NC=C(C(=N3)NCCC4=CN=CN4)Br
Procedure, shortened: as §1

[9] = compound: C1CN(CCC1(CC2=CC=C(C=C2)Cl)N)C3=NC=NC4=C3C=CN4
Procedure, shortened: as §1

[10] = compound: C1COCCN1CCN2C3=CC=CC=C3N=C2NC(=O)C4=CC(=CC=C4)[N+](=O)[O-] [IRAK-1-4 Inhibitor I]
Procedure, shortened: as §1

Measured: log2 fold change

UBE2Z (UniProt Q9H832)
inactive: [1] 0.017 | [2] 0.03 | [3] -0.032 | [4] -0.002 | [5] 0.022 | [6] -0.001 | [7] -0.009 | [8] -0.02 | [9] -0.011 | [10] -0.045

TUBB4B (UniProt P68371)
inactive: [1] 0.008 | [2] -0.059 | [3] 0.019 | [4] -0.018 | [5] 0.005 | [6] -0.024 | [7] -0.011 | [8] 0.019 | [9] 0.03 | [10] 0.04

UBA5 (UniProt Q9GZZ9)
inactive: [1] 0.004 | [2] 0.025 | [3] -0.011 | [4] 0.017 | [5] 0.015 | [6] -0.016 | [7] -0.014 | [8] 0.026 | [9] -0.008 | [10] -0.026

UCK1 isoform 4 (UniProt Q9HA47)
inactive: [1] 0.021 | [2] -0.062 | [3] 0.06 | [4] 0.024 | [5] 0.048 | [6] 0.046 | [7] 0.027 | [8] 0.019 | [9] -0.003 | [10] 0

TUBB3 (UniProt Q13509)
inactive: [1] 0.025 | [2] -0.089 | [3] 0.016 | [4] -0.004 | [5] 0.001 | [6] -0.019 | [7] -0.025 | [8] 0.018 | [9] 0.03 | [10] 0.006

UBTF (UniProt P17480)
inactive: [1] 0.02 | [2] 0.015 | [3] 0.018 | [4] 0.03 | [5] -0.009 | [6] 0.002 | [7] 0.027 | [8] 0.009 | [9] -0.022 | [10] -0.024

TYW1 (UniProt Q9NV66)
inactive: [1] 0.028 | [2] -0.013 | [3] 0.005 | [4] -0.149 | [5] -0.077 | [6] -0.019 | [7] -0.236 | [8] 0.01 | [9] 0.098 | [10] 0.152

UBE2R2 (UniProt Q712K3)
inactive: [1] -0.032 | [2] -0.11 | [3] -0.025 | [4] -0.012 | [5] -0.003 | [6] -0.003 | [7] 0.021 | [8] 0.066 | [9] 0.04 | [10] -0.013

TUBG1 (UniProt P23258)
inactive: [1] 0.033 | [2] -0.03 | [3] -0.036 | [4] 0 | [5] -0.029 | [6] 0.049 | [7] -0.061 | [8] 0.002 | [9] -0.006 | [10] 0.055

TTN isoform 12 (UniProt Q8WZ42)
inactive: [1] 0.01 | [2] -0.081 | [3] 0.021 | [4] -0.156 | [5] -0.013 | [6] 0.041 | [7] -0.06 | [8] -0.086 | [9] 0.043 | [10] 0.016

UBE2Q1 (UniProt Q7Z7E8)
inactive: [1] -0.005 | [2] 0.009 | [3] 0.029 | [4] 0.002 | [5] -0.001 | [6] -0.009 | [7] -0.012 | [8] -0.005 | [9] 0.027 | [10] 0.036

UBE3C (UniProt Q15386)
inactive: [1] 0.035 | [2] -0.061 | [3] -0.067 | [4] 0.011 | [5] -0.036 | [6] -0.01 | [7] -0.022 | [8] 0.027 | [9] 0.049 | [10] 0

UBAP2L isoform 5 (UniProt Q14157)
inactive: [1] -0.021 | [2] -0.019 | [3] 0.035 | [4] 0.008 | [5] 0.027 | [6] -0.184 | [7] 0.065 | [8] 0.009 | [9] -0.023 | [10] 0.065

UBE2A (UniProt P49459)
inactive: [1] 0.023 | [2] 0 | [3] 0 | [4] 0.018 | [5] 0.033 | [6] 0 | [7] 0.004 | [8] 0.011 | [9] -0.009 | [10] -0.012

UBFD1 (UniProt O14562)
inactive: [1] 0.012 | [2] -0.005 | [3] 0.001 | [4] -0.023 | [5] -0.003 | [6] 0.006 | [7] 0 | [8] -0.009 | [9] 0.012 | [10] 0.015

UBE2G1 (UniProt P62253)
inactive: [1] -0.035 | [2] 0.009 | [3] 0.052 | [4] -0.011 | [5] 0.016 | [6] 0.016 | [7] 0.007 | [8] 0.009 | [9] -0.013 | [10] 0.005

TXNRD2 (UniProt Q9NNW7)
inactive: [1] -0.01 | [2] -0.085 | [3] 0.049 | [4] 0.008 | [5] -0.025 | [6] 0.009 | [7] -0.031 | [8] 0.017 | [9] 0.044 | [10] -0.007

TUBB1 (UniProt Q9H4B7)
inactive: [1] 0.011 | [2] 0.091 | [3] 0.005 | [4] 0.01 | [5] 0.022 | [6] -0.011 | [7] 0.014 | [8] 0.015 | [9] 0.027 | [10] 0.019

TWISTNB (UniProt Q3B726)
inactive: [1] 0.008 | [2] -0.154 | [3] 0.032 | [4] -0.006 | [5] -0.005 | [6] -0.018 | [7] -0.025 | [8] 0.003 | [9] 0.06 | [10] -0.008

UBE3B (UniProt Q7Z3V4)
inactive: [1] -0.14 | [2] -0.218 | [3] -0.3 | [4] 0.056 | [5] 0.142 | [6] 0.011 | [7] -0.022 | [8] -0.04 | [9] -0.12 | [10] 0.019

UBE2NL (UniProt Q5JXB2)
inactive: [1] -0.01 | [2] 0.097 | [3] 0.008 | [4] 0.008 | [5] -0.038 | [6] -0.002 | [7] 0.029 | [8] 0 | [9] 0.033 | [10] -0.003

UBXN7 (UniProt O94888)
inactive: [1] 0.001 | [2] 0.012 | [3] 0.004 | [4] -0.014 | [5] -0.003 | [6] 0.032 | [7] -0.017 | [8] -0.012 | [9] 0.011 | [10] 0.016

UBXN1 (UniProt Q04323)
inactive: [1] -0.056 | [2] -0.046 | [3] -0.016 | [4] -0.008 | [5] 0.041 | [6] 0.006 | [7] 0.002 | [8] 0 | [9] -0.005 | [10] 0.004

UBE2E3 (UniProt Q969T4)
inactive: [1] -0.027 | [2] -0.024 | [3] 0.024 | [4] 0.011 | [5] -0.04 | [6] -0.012 | [7] -0.021 | [8] -0.051 | [9] 0.02 | [10] 0.029

TXNIP (UniProt Q9H3M7)
inactive: [1] 0.036 | [2] -0.165 | [3] -0.057 | [4] -0.045 | [5] -0.001 | [6] -0.003 | [7] 0.048 | [8] -0.042 | [9] 0.017 | [10] 0.041

2 successive entries from above, for reference:
TUBG1 (UniProt P23258)
inactive: [1] 0.033 | [2] -0.03 | [3] -0.036 | [4] 0 | [5] -0.029 | [6] 0.049 | [7] -0.061 | [8] 0.002 | [9] -0.006 | [10] 0.055

TTN isoform 12 (UniProt Q8WZ42)
inactive: [1] 0.01 | [2] -0.081 | [3] 0.021 | [4] -0.156 | [5] -0.013 | [6] 0.041 | [7] -0.06 | [8] -0.086 | [9] 0.043 | [10] 0.016

Going on with the list.

TUFM (UniProt P49411)
inactive: [1] 0.026 | [2] 0.023 | [3] 0.016 | [4] 0.01 | [5] 0.049 | [6] 0.005 | [7] -0.053 | [8] 0 | [9] -0.006 | [10] -0.006

UBXN10 (UniProt Q96LJ8)
inactive: [1] 0.064 | [2] 0.026 | [3] 0.057 | [4] -0.089 | [5] -0.072 | [6] 0.027 | [7] 0.018 | [8] -0.012 | [9] 0.041 | [10] 0.03

UBP1 (UniProt Q9NZI7)
inactive: [1] 0.018 | [2] -0.109 | [3] -0.095 | [4] 0.048 | [5] 0.016 | [6] 0.01 | [7] 0.032 | [8] -0.034 | [9] -0.017 | [10] 0.029

TUBGCP4 (UniProt Q9UGJ1)
inactive: [1] -0.017 | [2] -0.017 | [3] -0.007 | [4] 0.015 | [5] -0.018 | [6] -0.01 | [7] -0.028 | [8] 0.133 | [9] 0.045 | [10] 0.052

TXNL4A (UniProt P83876)
inactive: [1] 0.001 | [2] 0.039 | [3] 0.049 | [4] 0.012 | [5] 0 | [6] 0.02 | [7] -0.026 | [8] -0.01 | [9] 0.016 | [10] 0.003
